## Results of single-concentration screens

Amino acid sequences for entries named in this document (tags omitted). Residues count along the entry.
UniProt Q8IDJ8, 1-583: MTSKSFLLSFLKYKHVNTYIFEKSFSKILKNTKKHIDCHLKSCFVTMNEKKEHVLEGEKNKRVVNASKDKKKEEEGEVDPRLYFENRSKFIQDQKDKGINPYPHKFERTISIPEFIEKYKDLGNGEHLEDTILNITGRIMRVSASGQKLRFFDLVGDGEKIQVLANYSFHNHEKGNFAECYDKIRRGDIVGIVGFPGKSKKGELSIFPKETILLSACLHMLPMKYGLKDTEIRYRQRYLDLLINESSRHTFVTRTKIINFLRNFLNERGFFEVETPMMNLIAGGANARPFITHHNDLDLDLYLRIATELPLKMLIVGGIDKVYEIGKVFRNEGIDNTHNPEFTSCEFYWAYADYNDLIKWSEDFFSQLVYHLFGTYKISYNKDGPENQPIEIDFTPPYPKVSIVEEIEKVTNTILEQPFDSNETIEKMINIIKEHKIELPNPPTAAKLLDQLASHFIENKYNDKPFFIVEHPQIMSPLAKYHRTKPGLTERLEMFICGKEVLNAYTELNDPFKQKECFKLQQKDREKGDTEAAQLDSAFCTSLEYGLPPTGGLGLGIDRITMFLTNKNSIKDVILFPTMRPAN
UniProt Q4DA54, 1-478: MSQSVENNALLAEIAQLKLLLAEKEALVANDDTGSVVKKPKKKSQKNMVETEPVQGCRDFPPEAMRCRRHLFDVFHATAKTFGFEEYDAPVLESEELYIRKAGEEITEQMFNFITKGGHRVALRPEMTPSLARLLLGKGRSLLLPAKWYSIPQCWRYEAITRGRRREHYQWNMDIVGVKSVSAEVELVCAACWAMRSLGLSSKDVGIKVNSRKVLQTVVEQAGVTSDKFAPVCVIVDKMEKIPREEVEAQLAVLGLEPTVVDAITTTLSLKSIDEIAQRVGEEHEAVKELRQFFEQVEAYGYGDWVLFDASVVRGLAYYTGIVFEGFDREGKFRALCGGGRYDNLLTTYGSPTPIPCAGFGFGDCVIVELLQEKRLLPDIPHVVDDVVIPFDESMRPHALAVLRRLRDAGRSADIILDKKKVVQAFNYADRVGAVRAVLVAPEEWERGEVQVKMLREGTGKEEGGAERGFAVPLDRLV
UniProt I6X8D2, whole entry: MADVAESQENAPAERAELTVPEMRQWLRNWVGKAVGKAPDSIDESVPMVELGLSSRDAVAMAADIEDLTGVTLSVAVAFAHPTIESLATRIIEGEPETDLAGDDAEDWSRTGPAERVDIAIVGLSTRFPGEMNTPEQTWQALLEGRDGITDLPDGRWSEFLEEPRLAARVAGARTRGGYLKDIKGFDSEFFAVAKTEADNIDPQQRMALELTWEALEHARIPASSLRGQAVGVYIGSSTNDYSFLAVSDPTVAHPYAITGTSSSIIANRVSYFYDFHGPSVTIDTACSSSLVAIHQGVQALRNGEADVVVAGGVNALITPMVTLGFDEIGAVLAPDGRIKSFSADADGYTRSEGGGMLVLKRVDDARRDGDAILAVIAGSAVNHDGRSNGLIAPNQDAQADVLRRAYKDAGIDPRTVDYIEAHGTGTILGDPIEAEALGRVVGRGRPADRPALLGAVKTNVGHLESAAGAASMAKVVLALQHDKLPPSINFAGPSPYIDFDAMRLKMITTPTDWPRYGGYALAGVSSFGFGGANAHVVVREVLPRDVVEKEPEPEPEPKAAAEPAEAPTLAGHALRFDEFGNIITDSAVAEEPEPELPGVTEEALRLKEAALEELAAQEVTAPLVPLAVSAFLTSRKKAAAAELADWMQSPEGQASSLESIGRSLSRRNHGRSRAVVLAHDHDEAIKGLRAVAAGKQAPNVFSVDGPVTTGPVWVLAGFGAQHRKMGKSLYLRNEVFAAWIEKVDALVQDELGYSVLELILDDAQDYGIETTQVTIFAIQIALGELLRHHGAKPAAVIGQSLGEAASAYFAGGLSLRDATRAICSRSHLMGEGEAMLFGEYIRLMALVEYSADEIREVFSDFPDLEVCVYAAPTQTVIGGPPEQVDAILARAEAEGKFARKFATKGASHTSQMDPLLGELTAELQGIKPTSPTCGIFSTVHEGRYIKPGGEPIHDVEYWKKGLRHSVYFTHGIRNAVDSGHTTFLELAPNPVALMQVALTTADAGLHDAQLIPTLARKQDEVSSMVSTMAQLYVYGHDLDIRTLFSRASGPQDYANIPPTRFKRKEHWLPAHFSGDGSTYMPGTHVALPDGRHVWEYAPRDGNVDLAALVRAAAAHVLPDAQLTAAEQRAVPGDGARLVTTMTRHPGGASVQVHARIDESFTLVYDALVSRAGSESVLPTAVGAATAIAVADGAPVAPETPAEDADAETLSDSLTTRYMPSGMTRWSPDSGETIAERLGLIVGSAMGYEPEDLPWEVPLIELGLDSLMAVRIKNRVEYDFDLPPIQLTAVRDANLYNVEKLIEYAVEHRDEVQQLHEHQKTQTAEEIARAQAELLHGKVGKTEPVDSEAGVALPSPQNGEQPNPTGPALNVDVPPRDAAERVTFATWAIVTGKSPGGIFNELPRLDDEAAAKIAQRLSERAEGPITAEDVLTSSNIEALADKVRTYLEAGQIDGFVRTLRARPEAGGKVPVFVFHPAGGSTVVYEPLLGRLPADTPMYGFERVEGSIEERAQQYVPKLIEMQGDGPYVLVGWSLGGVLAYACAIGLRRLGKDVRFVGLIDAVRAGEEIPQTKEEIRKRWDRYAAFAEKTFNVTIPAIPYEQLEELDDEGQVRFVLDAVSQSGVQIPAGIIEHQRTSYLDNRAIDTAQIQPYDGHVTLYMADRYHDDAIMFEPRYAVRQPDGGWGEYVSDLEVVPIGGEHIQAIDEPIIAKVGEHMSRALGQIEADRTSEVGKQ

From ChEMBL document CHEMBL3988442, “University of Dundee, Small-Polar-MMV Screening Library” (2021).

Each number is a percent effect as filed.
The controls that fix the scale are not given in the record; negative values are as filed.
The compounds are a random part of those screened.
Two or more numbers in one place are separate tests of the same structure; such repeats can differ widely.
A dash means the value is not listed here; it may have been measured.

PfKRS1: 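Enzyme assay of the cytosolic lysyl-tRNA synthetase in 384-well plates, read by luminescence. Target: Lysine-tRNA ligase, Plasmodium falciparum 3D7 (UniProt Q8IDJ8). Concentration: 30 µM. Direction is inferred from only a few compounds that gave an IC50; most scored high, so higher reads as stronger inhibition. Size under these conditions: about 69,000 compounds, about 49 of them at 50% or above in at least one test.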
TcHisRS: 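Enzyme assay of histidyl-tRNA synthetase; the read-out is not stated. Target: Histidine-tRNA ligase, Trypanosoma cruzi CL Brener (UniProt Q4DA54). Compounds at 30 µM. Direction is inferred from retests: higher values go with stronger inhibition. Size under these conditions: about 69,000 compounds, about 31 of them at 50% or above in at least one test.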
Leishmania in macrophages: 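Cell assay of Leishmania donovani living inside macrophages; the read-out is not stated. Concentration: 30 µM. The record gives no direction; compounds that gave an IC50 in retests scored well above the rest, so higher reads as stronger inhibition. Of about 69,000 compounds tested this way, about 1,000 (1.5%) reached 50% or more in at least one test.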
Pks13 thioesterase: 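Polyketide synthase Pks13, Mycobacterium tuberculosis (UniProt I6X8D2). Enzyme assay of the thioesterase domain of polyketide synthase 13; the read-out is not stated. Compounds at 30 µM. The record gives no direction; the compounds picked for IC50 retests had high values, so higher reads as stronger inhibition. About 67,000 compounds were tested under these conditions; 0.46% (about 300) showed 50% or more at least once.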

| SMILES | PfKRS1 | TcHisRS | Leishmania in macrophages | Pks13 thioesterase |
|---|---|---|---|---|
| `COC(=O)c1cccc(S(=O)(=O)NC(=O)COC2CCCCC2)c1` | -0.842 | 5.172 | 19.87 | -7.56 |
| `CCOC(=O)c1sc2ccsc2c1CNC(=O)COC` | 0.4251 | 3.207 | 13.66 | - |
| `Cc1c[nH]nc1C1CCCN1Cc1ccncc1` (stereo not shown) | -0.4836 | 11.88 | 27.29 | 5.202 |
| `CCc1nc(CN(C)CC(=O)OC(C)(C)C)cs1` | -2.597 | -3.96 | 9.772 | 0.789 |
| `COc1ccc(CNC(=O)NC2CCC(O)CC2)c(C(F)(F)F)c1` (stereo not shown) | 2.357 | 3.252 | 25.95 | -8.753 |
| `O=C(O)C(F)(F)F.O=C(O)C(F)(F)F.[H][C@@]12COC[C@H](C(=O)NCc3ccccn3)[C@]1([H])CN(c1ncccn1)C2` | - | - | 1.026 | - |
| `Cc1nc(Nc2ccccn2)cc(N2CCN(S(C)(=O)=O)CC2)n1` | -3.723 | -2.062 | -19.66 & 8.824 | 0.9258 |
| `Cc1cc(-c2nn(C)c(Cl)c2CN2CC[C@@](O)(C3CCC3)[C@H](C)C2)no1` | 9.317 | 1.02 | 3.698 | 10.68 |
| `O=C(C1CCCC1)N1CCCC(c2cccc(-n3ccnc3)n2)C1` (stereo not shown) | 3.428 | 9.89 | -3.029 & -20.37 | -10.62 |
| `O=C(c1ccco1)N1C[C@H]2CN(Cc3cccc(F)c3)C(=O)[C@H]2C1` | 2.193 | 7.563 | - | -4.13 |
| `O=C(c1ccncc1)N1CCOC2(COCCN(c3cncnc3)C2)C1` (stereo not shown) | 0.365 | 3.448 | - | -28.27 |
| `COCCCN(Cc1ccccc1Cl)C1CCS(=O)(=O)C1` (stereo not shown) | -4.392 | 4.878 | -7.153 & -1.211 | -5.153 |
| `COC(=O)CCCNC(=O)Nc1ccccc1OC` | -1.594 | -7.937 | -27.98 | -12.65 |
| `CCc1ncc2c(n1)CN(C(=O)CC(C)NC(C)=O)C2` (stereo not shown) | 4.423 | -3.865 | 15.46 | -18.56 |
| `c1cc(CCN2CCCC2CN2CCCC2)ccn1` (stereo not shown) | -0.03632 | 5.155 | -0.6206 | -6.17 |
| `CN1CCOC(CNCC(=O)NCCc2ccc3c(c2)OCCO3)C1` (stereo not shown) | 1.387 | 4.972 | -1.671 | -37.93 |
| `CCOc1ccc(NC(=O)c2oc(CC)cc2C)cc1CO` | -0.8124 | -5.732 | 4.773 | -46.9 |
| `Cc1ccc(CN2CC[C@H](c3nnc(COc4ccc(F)cc4)o3)C2)o1` | 3.437 | 10.89 | -106 | 14.84 |
| `Cc1cc(C)nc(N2CCC(C(=O)Nc3ccc(C(C)C)cc3)CC2)n1` | 0.9008 | 5.385 | 6.016 | 1.362 |
| `CC(=O)N1CCOC(CCc2cc(-c3c(C)noc3C)ncn2)C1` (stereo not shown) | 1.288 | 3.788 | 20.07 | 19.47 |
| `CN(CCn1nc2ccccn2c1=O)CC(=O)N1CCCC1` | -3.587 | 7.609 | -6.28 | -44.39 |
| `O=C(O)C(F)(F)F.O=C(O)C(F)(F)F.c1cc(CN2CCC3(CC2)COC(COCC2CC2)C3)ccn1` (stereo not shown) | - | - | 9.154 | - |
| `CCCNC(=O)c1cnc(N(C)C)nc1COC` | 2.251 | -1.639 | 11.31 | -26.52 |
| `CCC1=N[C@@]2(CC[C@@H]3CN(C(=O)Nc4ccc(F)cc4)C[C@@H]32)C(=O)N1` | 6.081 | -1.604 | - | -0.8544 |
| `CN(C)C1CCN(C(=O)c2n[nH]c3c2CCN(CC2CCC2)C3)CC1` | 1.606 | 5.556 | -8.985 | -6.601 |
| `CNc1nc(CN2C[C@@H](NC(C)=O)[C@H](c3ccc(C)o3)C2)cs1` | 1.652 | 14.45 | -3.578 | -4.959 |
| `CN1CCCC1CNC(=O)CCCOc1ccc(Cl)cc1` (stereo not shown) | 1.57 | 8.284 | 14.48 | -6.312 |
| `CCCc1cc(=O)[nH]c2nnc(SCC(C)=O)n12` | 9.824 | 3.061 | 30.54 | -5.157 |
| `CCN1CCC(NC(=O)CNC(C)Cn2cccn2)CC1` (stereo not shown) | 2.213 | 6.349 | 2.519 | -15.88 |
| `Cl.c1cnc(N2CCCC(NCc3ccc(-n4ccnc4)cc3)C2)nc1` (stereo not shown) | - | - | 2.059 | - |
| `CC(C)(O)CCc1cccc(C(=O)N2CCC[C@H]2CN2CCCC2)c1` | 2.863 | 9.091 | 16.21 | -8.903 |
| `O=C(NCCN1C(=O)c2ccccc2C1=O)c1scnc1Cl` | 1.67 | 1.695 | 16.36 | -7.483 |
| `CN(Cc1ccc(F)cc1)CC1(O)CCCN(CC(C)(C)C)C1=O` (stereo not shown) | -0.6918 | 0.813 | 21.57 | -6.121 |
| `O=C(NCCN1CCOC1=O)c1cnc(-c2cccnc2)nc1` | -0.7766 | 15.08 | 8.618 | -4.935 |
| `CN(C)c1ccc2c(c1)CN(C(=O)c1ccco1)C2c1cnco1` (stereo not shown) | -13.71 | 7.362 | 11.88 | 28.8 |
| `CC(C)NC(=O)Nc1ccc(CS(=O)(=O)C(C)(C)C)cc1` | 6.86 | 4.348 | 19.29 | -22.14 |
| `Cc1cc(N2CCN(Cc3ccnn3C)CC2)cc(C2CCCN2)n1` (stereo not shown) | -1.693 | 6.061 | - | 7.657 |
| `[H][C@]12CC[C@]([H])(CN(Cc3cscn3)C1)N(Cc1cc(C(C)(C)C)[nH]n1)C2` | - | - | 99.99 | - |
| `CCC(=O)N1CCC(Cc2ccccc2-c2cccc(C)c2)(C(N)=O)C1` (stereo not shown) | 0.677 | 1.498 | 1.295 | -33.87 |
| `Cc1nn(C)c(N(C)C)c1CNC1CCCCNC1=O` (stereo not shown) | -1.162 | 4.972 | 12.58 | -32.5 |
| `c1cncc(CN2CCc3ncnc(C4CC4)c3CC2)c1` | -0.05972 | 8.743 | - | -17.89 |
| `O=C(O)C(F)(F)F.O=C(O)C(F)(F)F.O=C(O)C(F)(F)F.[H][C@@]12CCN(Cc3cccnc3)C[C@]1([H])[C@@H](CN(C)Cc1ccco1)OC2` | - | - | 35.45 | - |
| `Fc1cccc(N2CCCC3(CN(Cc4cccnc4)CCO3)C2)c1` (stereo not shown) | 5.32 | 9.184 | - | 5.628 |
| `Cn1nc(COc2cccnc2)c2c1CCN(Cc1ccco1)C2.O=C(O)C(F)(F)F.O=C(O)C(F)(F)F` | - | - | 17.65 | - |
| `Cc1cc(C2CCCN(C(=O)CN3CCN(C)CC3)C2)n[nH]1` (stereo not shown) | 0.1744 | -0.3831 | 10.11 | -7.166 |
| `[H][C@@]12CCN(C(=O)COc3ccc(C)cc3)C[C@]1(COC)CCO2` | - | - | 10.19 | - |
| `Cl.Cl.c1cnc(NCc2cncc3c2CCN(Cc2ccoc2)C3)nc1` | - | - | -9.901 | - |
| `CCc1cc(NCCCOC2CCN(C)CC2)ncn1` | -0.1527 | 3.863 | -6.301 | -5.629 |
| `Cc1cc2c(N3CCC(N(C)Cc4nccs4)CC3)ncnc2s1` | 2.656 | 5.263 | 45.06 | -19.15 |
| `COc1ccccc1S(=O)(=O)N1CCC2(CC1)[C@H](O)C[C@@H]2O` | 1.523 | 2.353 | 16.14 | -6.115 |
| `CN(CC1CCOC1)S(=O)(=O)c1cccc(C(=O)N2CCOCC2)c1` (stereo not shown) | 2.197 | 6.931 | 38.83 | -3.65 |
| `COc1cccc([C@H]2CN(C(=O)c3scc4c3CCCC4)C[C@@H]2N)c1` | 3.268 | 7.729 | 17.63 | -12.57 |
| `CC(C)C(=O)N1CCN(Cc2csc(-c3ncccn3)n2)CC1` | -1.358 | 3.261 | 6.4 | -26.19 |
| `N#Cc1cccc(CN2CC[C@@H]3CO[C@@H](CN4CCCC4)[C@@H]3C2)c1` | 9.863 | 5.747 | - | -8.112 |
| `CN(c1ncnc2c1CCC2)C1CCCN(c2cccnn2)C1` (stereo not shown) | 0.4479 | 7.216 | 10.91 | -10.79 |
| `Cc1cc(N2CCOCC2)ccc1NC(C)c1nc(C(C)C)no1` (stereo not shown) | 2.068 | 12 | 17.29 | 3.539 |
| `CO[C@H]1CCN(C(=O)c2cc(C)on2)C[C@@H]1Cc1ccccc1` | -2.207 | 0.9709 | -10.42 | -32.11 |
| `CCCC(=O)N1CCC(c2cc3cccnc3c(O)n2)CC1` | 0.2899 | 4.887 | -37.93 | 5.762 |
| `COCc1cc(O)nc(C2CCCN(Cc3ccc(OC)cc3)C2)n1` (stereo not shown) | 2.998 | 13.19 | 5.138 & -0.8782 | 6.61 |
| `CCC(C)Nc1ccc(-c2nc(-c3cccc(OC)c3OC)no2)cn1` (stereo not shown) | 1.001 | 4.469 | -10.95 | 69.49 |
| `CC(CNC(=O)c1cnccn1)Oc1ccc(F)cc1` (stereo not shown) | 1.557 | 2.632 | 4.499 | -3.719 |
| `c1ccc(Cc2nc(C3CC3)nn2-c2ccc3c(c2)OCCO3)nc1` | -1.354 | -13.92 | -14.32 | -17.28 |
| `CCCn1nnnc1COC(=O)C1COc2ccccc2O1` (stereo not shown) | -3.536 | 2.609 | 17.46 | -0.2469 |
| `Cc1cc(C)n(CC2CCCN2CC(=O)N(C)Cc2ccco2)n1` (stereo not shown) | 1.094 | 4.942 | 34.8 | 1.007 |
| `Cc1ccc(C)c(-n2ncc(C(=O)NCC3COC(C)(C)O3)c2N)c1` (stereo not shown) | -1.125 | 7.955 | 6.712 | 66.56 |

Repeated from the top, 4 entries:

{"smiles": "COC(=O)c1cccc(S(=O)(=O)NC(=O)COC2CCCCC2)c1", "PfKRS1": -0.842, "TcHisRS": 5.172, "Leishmania in macrophages": 19.87, "Pks13 thioesterase": -7.56}
{"smiles": "CCOC(=O)c1sc2ccsc2c1CNC(=O)COC", "PfKRS1": 0.4251, "TcHisRS": 3.207, "Leishmania in macrophages": 13.66}
{"smiles": "Cc1c[nH]nc1C1CCCN1Cc1ccncc1", "stereo": "stereo not shown", "PfKRS1": -0.4836, "TcHisRS": 11.88, "Leishmania in macrophages": 27.29, "Pks13 thioesterase": 5.202}
{"smiles": "CCc1nc(CN(C)CC(=O)OC(C)(C)C)cs1", "PfKRS1": -2.597, "TcHisRS": -3.96, "Leishmania in macrophages": 9.772, "Pks13 thioesterase": 0.789}